# Assay results from the supplement of paper PMC10735217.
# Counter-ions that a name gives are not always drawn. The list shows a part of the results. Single values are uncertain here, since repeats match poorly.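 Human kidney-derived cells stably carry a construct in which eight TEAD-binding elements drive luciferase, measured by luminescence in a drug-repurposing library screen. A hit is any compound whose signal exceeds the plate mean by more than five robust Z scores.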
# Test system: HEK293A TEAD-LUC reporter
# Assay: TEAD-luciferase reporter activity (YAP activation), robust Z score vs plate; higher = stronger YAP/TEAD activation
# Details: 24 h
SMILES,TEAD-luciferase reporter activity (compound concentration: 200 nM),TEAD-luciferase reporter activity (compound concentration: 2 uM),TEAD-luciferase reporter activity (compound concentration: 10 uM)
CC(C)(O)Cn1c(=O)n(Cc2ccc(Br)cc2)c(=O)c2ccc(Cl)c(F)c21,inactive: -1.58,inactive: -1.67,inactive: 2.48
COc1ccc(CCN(C)CCCN(C(=O)c2ccc([N+](=O)[O-])cc2)c2ccc(OC)c(OC)c2)cc1OC,inactive: -0.881,inactive: 1.28,inactive: -1.61
CC(C)(C(=O)O)c1cn2nc(NCCCN3CCC(OC(c4ccccc4)c4ccccc4)CC3)ccc2n1,inactive: 0.894,inactive: -0.473,inactive: 0.755
CCOCCOC(=O)/C=C/c1ccc(OC)cc1,inactive: -3.68,active: 8.02,inactive: 0.896
CC1(C)CC=C(c2nc(C3CC(C)(C)OC(C)(C)C3)ccc2NC(=O)c2nc(C#N)c[nH]2)CC1,inactive: -1.77,inactive: -0.74,inactive: -1.03
CC(C)n1c(=O)c(C(=O)NC2CC3CCC(C2)N3C[C@@H](O)CN(C)S(C)(=O)=O)cc2ccccc21 (stereo partly drawn) [velusetrag],inactive: -1.16,inactive: 1.43,inactive: -1.01
COc1ccccc1OCCNCC(O)COc1cccc2[nH]c3ccccc3c12 (stereo not drawn) [carvedilol sulfate],,inactive: -0.959,
COc1ccccc1OCCNCC(O)COc1cccc2[nH]c3ccccc3c12 (stereo not drawn) [Carvedilol],inactive: -1.6,,inactive: -1.42
N=C(N)Nc1nc(-c2cccc(N)c2)cs1,inactive: -0.891,inactive: -1.29,inactive: 0.181
O=C(O)CCC(=O)Nc1ccc(S(=O)(=O)Nc2nccs2)cc1,inactive: 2.26,inactive: -0.334,inactive: 2.36
OCC1O[C@@H](Oc2cc3c(O)cc(O)cc3[o+]c2-c2cc(O)c(O)c(O)c2)[C@@H](O)C(O)[C@@H]1O (stereo partly drawn) [Delphinidin 3-glucoside chloride],inactive: -0.546,inactive: -1.41,inactive: 0.136
Cc1noc(-c2ccc(-c3ccc(C4(C(=O)O)CC4)cc3)cc2)c1NC(=O)O[C@H](C)c1ccccc1,,inactive: -1.85,
CCc1noc(C)c1-c1[nH]c2ccccc2c1C(O)CN(C)C (stereo not drawn),inactive: -2.05,inactive: -0.52,inactive: 3.68
O=C(Nc1nn[nH]n1)c1cncc(N2CCCC2)n1,inactive: -1.71,inactive: -1.15,inactive: -0.682
CC1C(N)CN1c1cc2c(cc1F)c(=O)c(C(=O)O)cn2-c1ccc(F)cc1F (stereo not drawn),inactive: 0.8,inactive: 2,inactive: 1.74
CCN(C(=O)C1CCN(C(C)C)CC1)C(C)Cc1ccc(OC)cc1 (stereo not drawn),inactive: -1.88,inactive: 1.5,inactive: 2.57
CC(C)(CO)NCC(O)c1cc(O)cc(O)c1 (stereo not drawn),inactive: -0.341,inactive: 1,inactive: 0.0881
N#Cc1ccc(CN2CCC3(CC2)NC(=O)c2ccccc2O3)cc1,inactive: 0.478,,inactive: -0.293
CC(C)(C)c1cc(-c2cc(-c3ccc(C(=O)O)cc3)ccc2OCCO)ccc1N1CCCC1 [trifarotene],inactive: -2.53,inactive: -0.383,inactive: -0.502
NC(C(=O)Cl)c1ccccc1 (stereo not drawn),inactive: -1.1,inactive: -1.45,inactive: 0.452

# Only TEAD-luciferase reporter activity (compound concentration: 200 nM) and TEAD-luciferase reporter activity (compound concentration: 2 uM), for some of the entries so far:
SMILES | TEAD-luciferase reporter activity (compound concentration: 200 nM) | TEAD-luciferase reporter activity (compound concentration: 2 uM)
O=C(O)CCC(=O)Nc1ccc(S(=O)(=O)Nc2nccs2)cc1 | inactive: 2.26 | inactive: -0.334
CC(C)(CO)NCC(O)c1cc(O)cc(O)c1 (stereo not drawn) | inactive: -0.341 | inactive: 1

# 2 records drawn at random from those above, as already listed:
SMILES,TEAD-luciferase reporter activity (compound concentration: 200 nM),TEAD-luciferase reporter activity (compound concentration: 2 uM),TEAD-luciferase reporter activity (compound concentration: 10 uM)
COc1ccc(CCN(C)CCCN(C(=O)c2ccc([N+](=O)[O-])cc2)c2ccc(OC)c(OC)c2)cc1OC,inactive: -0.881,inactive: 1.28,inactive: -1.61
COc1ccccc1OCCNCC(O)COc1cccc2[nH]c3ccccc3c12 (stereo not drawn) [Carvedilol],inactive: -1.6,,inactive: -1.42

# Later entries:

SMILES,TEAD-luciferase reporter activity (compound concentration: 200 nM),TEAD-luciferase reporter activity (compound concentration: 2 uM),TEAD-luciferase reporter activity (compound concentration: 10 uM)
CN(Cc1cccc(C(F)(F)F)c1)C(=O)[C@@H](CCC(=O)N1CCC(N2CCCCC2)CC1)N1C(=O)[C@@H](N2C(=O)OC[C@@H]2c2ccccc2)[C@H]1/C=C/c1ccccc1 [analog of SRX-251],,inactive: 1.06,
COc1cc2c(c(OC)c1OC)-c1c(cc(OC)c(OC)c1OC)C[C@](C)(O)[C@@H](C)C2 [Schizandrin],inactive: -1.25,inactive: 0.15,inactive: 0.128
O=C(CCBr)N1CCN(C(=O)CCBr)CC1 [Pipobroman],inactive: 3.58,inactive: -0.0648,inactive: 1.36
CC(C)Sc1cc(-c2ccc(CCNC[C@H](O)c3ccccc3)cc2)ccc1C(=O)NS(C)(=O)=O,inactive: -0.63,inactive: -0.614,inactive: -0.955
CCOC(=O)Nc1ccc(SCC2CO[C@](Cn3ccnc3)(c3ccc(Cl)cc3Cl)O2)cc1 (stereo partly drawn) [tubulozole],inactive: 0.647,active: 9.2,inactive: 3.13
N=C(N)NN=Cc1ccccc1Cl,inactive: -0.495,inactive: -0.977,inactive: 3.32
O=C(O)CCC/C=C(/c1ccc(CCNS(=O)(=O)c2ccc(Cl)cc2)cc1)c1cccnc1,inactive: -0.93,inactive: -0.853,inactive: -1.19
CC(C)NCC(O)COc1ccccc1C1CC2CCC1C2 (stereo not drawn),inactive: 1.36,inactive: 0.771,inactive: 4.3
COc1ccc(C(=O)Nc2ccccc2CCC2CCCCN2C)cc1 (stereo not drawn) [encainide],inactive: -0.952,inactive: -0.676,
CNCCCCNCC1CC1C (stereo not drawn),inactive: -0.843,inactive: 0.664,active: 5.08
CC(=O)Nc1ccc(OC(C)(C)C)cc1,inactive: -0.84,inactive: -0.609,inactive: 1.78
CC(C)(C)c1ccc(CCC(O)COc2ccc(C(=O)O)cc2)cc1 (stereo not drawn) [lifibrol],inactive: 1.96,inactive: -0.411,inactive: 0.259
NC(=O)c1nc(F)cnc1O [Favipiravir],,inactive: 1.7,
NC(=O)c1nc(F)cnc1O,inactive: 1.45,,inactive: -1.05
Nc1nc2c(s1)CCc1c-2sc2nc(-c3ccccc3)cn12,inactive: -0.92,inactive: -2.45,inactive: -3.09
N=C(NC(=O)c1nc(Cl)c(N)nc1N)NC1CCN(C(=O)c2ccc(C(=O)N3CCC(NC(=N)NC(=O)c4nc(Cl)c(N)nc4N)CC3)cc2)CC1,inactive: 1.66,inactive: 0.434,inactive: 1.55
CCOC(Nc1ccc(C(=O)O)cc1)C(=O)c1ccc(-c2ccccc2)cc1 (stereo not drawn),inactive: -0.812,inactive: -0.843,inactive: -1.55
Cc1c(Cl)cccc1S(=O)(=O)Nc1nc(CCN2CCOCC2=O)cs1,inactive: 0.201,inactive: 0.253,inactive: 0.153
c1csc(-c2cn3c(n2)SCC3)c1,inactive: -0.227,inactive: 0.538,inactive: 4.5
O=S1(=O)CS(=O)(=O)OCCO1 [cyclodisone],inactive: -1.21,inactive: 1.21,inactive: -0.556

SMILES,TEAD-luciferase reporter activity (compound concentration: 200 nM),TEAD-luciferase reporter activity (compound concentration: 2 uM),TEAD-luciferase reporter activity (compound concentration: 10 uM)
CONC1=C(C)[C@@H](/C(C)=C/C(C)C)O[C@]2(C1)C[C@@H]1C[C@@H](C/C=C(\C)C[C@@H](C)/C=C/C=C3\CO[C@@H]4[C@H](O)C(C)=C[C@@H](C(=O)O1)[C@]34O)O2 [Moxidectin],inactive: -0.353,inactive: 0.293,inactive: -3.36
"C=CCOc1ccccc1OCC(O)CNC(C)C (stereo not drawn) [oxprenolol, Alza]",inactive: -0.788,,inactive: -0.46
C=CCOc1ccccc1OCC(O)CNC(C)C (stereo not drawn) [oxprenolol],,inactive: 2.72,
CNCCCN1c2ccccc2CCc2ccccc21 [Desipramine],inactive: 0.00999,inactive: -0.738,inactive: -0.162
NC(=O)Oc1ccc(Cc2ccccc2)cc1,inactive: -0.35,inactive: 0.0732,inactive: -0.854
O=C(c1ccccc1F)N1CCC(n2c(=O)[nH]c3ccccc32)CC1,inactive: 0.0143,,active: 6.73
Cc1ccn(-c2cc(Cl)ccc2[C@@H](Oc2cc(-c3ccc(C[C@H](N)C(=O)O)cc3)nc(N)n2)C(F)(F)F)n1,,inactive: 1.23,
Cc1ccn(-c2cc(Cl)ccc2[C@@H](Oc2cc(-c3ccc(C[C@H](N)C(=O)O)cc3)nc(N)n2)C(F)(F)F)n1 [Telotristat],inactive: 0.381,,inactive: 4.4
CNC(=O)c1ccc(N2C[C@H](CNC(C)=O)OC2=O)cc1F,inactive: -1.58,inactive: -0.294,inactive: -1.27
CNCC(C)C1CCCCC1 (stereo not drawn),inactive: 0.905,inactive: -0.229,inactive: 1.04
CCCN1CCCCC12Cc1ccccc1CN(C(=O)C1CCCC1)C2 (stereo not drawn),inactive: -2.53,,inactive: -1.03
Cc1nccc2[nH]c(=O)ccc12 [Medori],inactive: -0.342,inactive: -1.21,inactive: -0.0433
N[C@]1(C[n+]2ccccc2)C[C@H](C(=O)O)NC1=O,inactive: 0.000636,,inactive: 0.029
CC(C)COc1cccc2[nH]c(C(=O)NC3CCN(CCN4CCCCCC4)CC3)cc12,inactive: -1.34,inactive: -0.493,inactive: 0.901
OC[C@H]1NC[C@H](O)[C@@H](O)[C@@H]1O [1-Deoxynojirimycin],,inactive: 2.29,
OC[C@H]1NC[C@H](O)[C@@H](O)[C@@H]1O [Duvoglustat hydrochloride],,inactive: 0.323,
OC[C@H]1NC[C@H](O)[C@@H](O)[C@@H]1O [Duvoglustat],inactive: -0.366,,inactive: -0.641
CC(C)(C)C[C@@H]1N[C@@H](C(=O)N[C@H]2CC[C@H](O)CC2)[C@H](c2cccc(Cl)c2F)[C@]12C(=O)Nc1cc(Cl)ccc12,inactive: -0.396,inactive: -1.06,inactive: -1.16
O=C(c1ccc(F)cc1)N1CCC(C(=O)N2CCC(N3CCCC3=O)CC2)CC1,inactive: 0.146,,inactive: 0.189
CC(C)NC(=O)COc1cccc(-c2nc(Nc3ccc4[nH]ncc4c3)c3ccccc3n2)c1,inactive: 1.13,inactive: -1.93,inactive: -0.206
